From US9447108B2 (SZEGEDI TUDOMÁNYEGYETEM, priority 2013, dated 2016) come the findings set out here.

By UniProt entry, the sequences of proteins in these tests, tags left out. Where a name states a change or a piece, a line headed by the entry shows the natural chain unless it says otherwise.
UniProt P33533, whole entry: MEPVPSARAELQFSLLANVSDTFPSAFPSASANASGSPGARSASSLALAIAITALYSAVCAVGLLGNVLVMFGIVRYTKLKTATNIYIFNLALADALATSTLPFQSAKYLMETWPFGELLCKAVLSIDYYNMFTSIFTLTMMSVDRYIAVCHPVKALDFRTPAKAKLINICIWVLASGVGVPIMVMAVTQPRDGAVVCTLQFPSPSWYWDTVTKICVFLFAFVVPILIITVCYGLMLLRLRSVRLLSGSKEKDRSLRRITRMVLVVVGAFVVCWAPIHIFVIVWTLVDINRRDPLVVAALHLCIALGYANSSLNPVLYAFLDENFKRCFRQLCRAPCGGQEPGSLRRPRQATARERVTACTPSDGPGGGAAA

By Ki is commonly meant the dissociation constant of the complex between target and ligand, obtained from inhibition or displacement. High values mean a looser hold on the target, low ones a stronger hold on the target.

The experiment concerns the target T1, δ-opioid receptors (Rattus norvegicus, UniProt P33533).
T1 construct: A crude membrane fraction was prepared from Wistar rat brains and spinal cords; from tissue; host or cells: Wistar rat brain (without cerebellum), crude membrane fraction
Put plainly: Receptor binding assay, [3H]Ile5,6-deltorphin-2 displacement in rat brain membranes.

In turn, `CC[C@H](C)[C@H](NC(=O)[C@H](CCC(=O)O)NC(=O)[C@H](Cc1ccccc1)NC(=O)[C@@H](C)NC(=O)[C@@H](N)Cc1ccc(O)cc1)C(=O)N[C@H](C(=O)NCC(N)=O)[C@@H](C)CC` [Ile^5'6-deltorphin-2, Tyr-D-Ala-Phe-Glu-Ile-Ile-Gly-NH2, reference compound] gave a Ki of 0.96 ± 0.01 nM.
